The list shows a part of the results. The main result of the screen is listed elsewhere. These columns were measured beside it and carry no call. The list favours compounds with an active or inconclusive main result. Potencies come from curve fits of mixed quality, noted in brackets.
Assay: qHTS Assay for Lipid Storage Modulators in Drosophila S3 Cells;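 as to cell number change: cells counted by Cell Tracker Red CMTPX staining in the red channel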
Details: BODIPY lipid droplet fluorescence, 18-24 h; for cell number change: measured here: cell count max response, cells fed with added oleic acid
Method in brief: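 Laser-scanning cytometry quantifies lipid droplet accumulation (500–530 nm total intensity; droplet/cell object ratio) in oleic acid-fed (400 uM added) Drosophila S3 cells treated with a concentration series. 20 uM Triacsin C defined 100% inhibition.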

[1] = measured here: lipid fluorescence (Fed channel) AC50, cells fed with added oleic acid
[2] = measured here: cell number channel AC50, cells fed with added oleic acid

Row | Compound | cell number change | AC50 [1] | AC50 [2]
1 | O=C(NC12CC3CC(CC(C3)C1)C2)C1=COCCO1 | -12.6% | 29100 nM [rising, single point] | –
2 | O=C(Nc1ccc2ccccc2c1)c1ccc(Cl)cc1 | – | 1840 nM [falling, full curve] | –
3 | COc1ccc(-c2n[nH]c3c2C(c2ccc(OC)c(OC)c2)N(c2ccccc2)C3=O)cc1 (stereo not drawn) | – | 2910 nM [rising, partial curve] | 1840 nM [rising, partial curve]
4 | COc1ccc2oc(=O)c(C(=O)N3CCN(C(=O)c4ccco4)CC3)cc2c1 | -3.48% | 580 nM [rising, single point] | –
5 | CCCc1cc(-c2[nH]ncc2-c2ccc(C(=O)OCC)o2)c(O)cc1O | -64.5% | 16400 nM [falling, single point] | 18400 nM [falling, partial curve]
6 | CCc1nnc(NC(=O)c2cc(S(=O)(=O)N(CC)CC)ccc2Cl)s1 | 27.4% | – | –
7 | Cc1ccc(NC(=O)COC(=O)/C(=C/c2cccs2)c2cccs2)cc1S(=O)(=O)N(C)C | 27.3% | 2310 nM [rising, full curve] | 2060 nM [rising, full curve, poor fit]
8 | O=C(c1ccccn1)N1N=C2/C(=C/c3ccc(F)cc3)CCCC2C1c1ccc(F)cc1 (stereo not drawn) | -18.5% | 20600 nM [falling, single point] | –
9 | CCc1cc(OCCCSc2nc(C)cc(=O)[nH]2)ccc1Cl | -38.3% | – | 32600 nM [falling, single point]
10 | CCc1ccc(NCc2cc3c(C)nn(-c4ccccc4)c3[nH]c2=O)cc1 | 1.62% | 14600 nM [falling, partial curve] | –
11 | Cc1ccc(S(=O)(=O)n2c(=O)oc3ccccc32)cc1 | 4.08% | – | –
12 | Cn1c(=O)c(C(=O)CSc2nncs2)c(N)n(Cc2ccccc2)c1=O | -2.79% | – | –
13 | Cc1cccc(-n2c(C)cc(/C=N/O)c2C)c1 | 16.1% | 259 nM [falling, partial curve] | 411 nM [falling, full curve]
14 | COc1ccc(CNC(=O)C(=O)NCC2CCCN2S(=O)(=O)c2ccccc2)cc1 (stereo not drawn) | -7.91% | 5.17 nM [falling, full curve, poor fit] | –
15 | CCOC(=O)c1cccc(COC(=O)c2cccc(-c3nnc(-c4ccccc4)o3)c2)c1 | 24.3% | 291 nM [rising, full curve] | –
16 | COc1ccc(-c2c(C)nn(Cc3ccccc3)c2N)cc1 | -5.02% | – | 326 nM [rising, partial curve, poor fit]
17 | Cc1nc(NCc2ccc3c(c2)OCO3)c2nnn(Cc3ccccc3)c2n1 | 64.4% | 517 nM [rising, full curve, poor fit] | 4110 nM [rising, full curve]
18 | O=c1[nH]c(NC2CCN(S(=O)(=O)c3ccccc3C(F)(F)F)CC2)nc2c1CCCC2 | 0.806% | 820 nM [falling, full curve, poor fit] | –
19 | N#CCC(=O)Nn1c(=S)[nH]c2ccccc2c1=O | 5.11% | – | 231 nM [rising, full curve, poor fit]
20 | CC(C)Oc1cccc(-c2cc(C(=O)NC(=S)N(C)c3ccccc3C(=O)O)c3ccccc3n2)c1 | 17.3% | 29100 nM [rising, single point] | –
21 | COc1ccc(Cc2nc(-c3cccs3)no2)cc1OC | 6.16% | 29100 nM [falling, partial curve, poor fit] | –
22 | CCOc1ccccc1-c1cc(C(=O)N/N=C/c2ccc(O)c(OC)c2)c2ccccc2n1 | 30.4% | 411 nM [falling, partial curve, poor fit] | 2910 nM [rising, partial curve]
23 | COC(=O)c1ccc(S(=O)(=O)N2CCCCCC2)n1C | -8.56% | 2590 nM [falling, full curve] | 4.61 nM [falling, full curve, poor fit]
24 | O=C(N[C@@H](Cc1ccccc1)C(=O)OCc1ccccc1)c1nc[nH]c1C(=O)N1CCc2ccccc2C1 | 13.8% | 259 nM [rising, full curve] | –
25 | CC(C)CNC(=O)c1coc(=O)c(Br)c1 | -70.8% | – | 29100 nM [falling, single point]
26 | COCc1nc(-c2ccc(-c3ccc(OC)cc3)nc2OC)no1 | 13.5% | 3660 nM [rising, partial curve, poor fit] | –
27 | Cc1ccc(S(=O)(=O)N2CCN(C(=O)COC(=O)c3oc4ccccc4c3C)CC2)cc1 | 83.5% | – | 8200 nM [rising, partial curve]
28 | O=C(OCc1cc2ccccc2[nH]c1=O)c1ccccc1 | – | 517 nM [rising, full curve] | 259 nM [rising, partial curve]

Whole records, quoted from the list:
O=C(N[C@@H](Cc1ccccc1)C(=O)OCc1ccccc1)c1nc[nH]c1C(=O)N1CCc2ccccc2C1 is entered as cell number change: 13.8%; AC50 [1]: 259 nM [rising, full curve]
COc1ccc(Cc2nc(-c3cccs3)no2)cc1OC is entered as cell number change: 6.16%; AC50 [1]: 29100 nM [falling, partial curve, poor fit]

From PubChem BioAssay AID2685 (National Center for Advancing Translational Sciences (NCATS), 2010)
